# ± gives the standard deviation of the averaged measurements. The list shows a part of the results. Only hits are listed; about a third recur on repeated control peptides.
# Chains of the proteins cited; added tags and fusions are not shown.
# EP300, Q09472, UniProt Q09472, whole entry: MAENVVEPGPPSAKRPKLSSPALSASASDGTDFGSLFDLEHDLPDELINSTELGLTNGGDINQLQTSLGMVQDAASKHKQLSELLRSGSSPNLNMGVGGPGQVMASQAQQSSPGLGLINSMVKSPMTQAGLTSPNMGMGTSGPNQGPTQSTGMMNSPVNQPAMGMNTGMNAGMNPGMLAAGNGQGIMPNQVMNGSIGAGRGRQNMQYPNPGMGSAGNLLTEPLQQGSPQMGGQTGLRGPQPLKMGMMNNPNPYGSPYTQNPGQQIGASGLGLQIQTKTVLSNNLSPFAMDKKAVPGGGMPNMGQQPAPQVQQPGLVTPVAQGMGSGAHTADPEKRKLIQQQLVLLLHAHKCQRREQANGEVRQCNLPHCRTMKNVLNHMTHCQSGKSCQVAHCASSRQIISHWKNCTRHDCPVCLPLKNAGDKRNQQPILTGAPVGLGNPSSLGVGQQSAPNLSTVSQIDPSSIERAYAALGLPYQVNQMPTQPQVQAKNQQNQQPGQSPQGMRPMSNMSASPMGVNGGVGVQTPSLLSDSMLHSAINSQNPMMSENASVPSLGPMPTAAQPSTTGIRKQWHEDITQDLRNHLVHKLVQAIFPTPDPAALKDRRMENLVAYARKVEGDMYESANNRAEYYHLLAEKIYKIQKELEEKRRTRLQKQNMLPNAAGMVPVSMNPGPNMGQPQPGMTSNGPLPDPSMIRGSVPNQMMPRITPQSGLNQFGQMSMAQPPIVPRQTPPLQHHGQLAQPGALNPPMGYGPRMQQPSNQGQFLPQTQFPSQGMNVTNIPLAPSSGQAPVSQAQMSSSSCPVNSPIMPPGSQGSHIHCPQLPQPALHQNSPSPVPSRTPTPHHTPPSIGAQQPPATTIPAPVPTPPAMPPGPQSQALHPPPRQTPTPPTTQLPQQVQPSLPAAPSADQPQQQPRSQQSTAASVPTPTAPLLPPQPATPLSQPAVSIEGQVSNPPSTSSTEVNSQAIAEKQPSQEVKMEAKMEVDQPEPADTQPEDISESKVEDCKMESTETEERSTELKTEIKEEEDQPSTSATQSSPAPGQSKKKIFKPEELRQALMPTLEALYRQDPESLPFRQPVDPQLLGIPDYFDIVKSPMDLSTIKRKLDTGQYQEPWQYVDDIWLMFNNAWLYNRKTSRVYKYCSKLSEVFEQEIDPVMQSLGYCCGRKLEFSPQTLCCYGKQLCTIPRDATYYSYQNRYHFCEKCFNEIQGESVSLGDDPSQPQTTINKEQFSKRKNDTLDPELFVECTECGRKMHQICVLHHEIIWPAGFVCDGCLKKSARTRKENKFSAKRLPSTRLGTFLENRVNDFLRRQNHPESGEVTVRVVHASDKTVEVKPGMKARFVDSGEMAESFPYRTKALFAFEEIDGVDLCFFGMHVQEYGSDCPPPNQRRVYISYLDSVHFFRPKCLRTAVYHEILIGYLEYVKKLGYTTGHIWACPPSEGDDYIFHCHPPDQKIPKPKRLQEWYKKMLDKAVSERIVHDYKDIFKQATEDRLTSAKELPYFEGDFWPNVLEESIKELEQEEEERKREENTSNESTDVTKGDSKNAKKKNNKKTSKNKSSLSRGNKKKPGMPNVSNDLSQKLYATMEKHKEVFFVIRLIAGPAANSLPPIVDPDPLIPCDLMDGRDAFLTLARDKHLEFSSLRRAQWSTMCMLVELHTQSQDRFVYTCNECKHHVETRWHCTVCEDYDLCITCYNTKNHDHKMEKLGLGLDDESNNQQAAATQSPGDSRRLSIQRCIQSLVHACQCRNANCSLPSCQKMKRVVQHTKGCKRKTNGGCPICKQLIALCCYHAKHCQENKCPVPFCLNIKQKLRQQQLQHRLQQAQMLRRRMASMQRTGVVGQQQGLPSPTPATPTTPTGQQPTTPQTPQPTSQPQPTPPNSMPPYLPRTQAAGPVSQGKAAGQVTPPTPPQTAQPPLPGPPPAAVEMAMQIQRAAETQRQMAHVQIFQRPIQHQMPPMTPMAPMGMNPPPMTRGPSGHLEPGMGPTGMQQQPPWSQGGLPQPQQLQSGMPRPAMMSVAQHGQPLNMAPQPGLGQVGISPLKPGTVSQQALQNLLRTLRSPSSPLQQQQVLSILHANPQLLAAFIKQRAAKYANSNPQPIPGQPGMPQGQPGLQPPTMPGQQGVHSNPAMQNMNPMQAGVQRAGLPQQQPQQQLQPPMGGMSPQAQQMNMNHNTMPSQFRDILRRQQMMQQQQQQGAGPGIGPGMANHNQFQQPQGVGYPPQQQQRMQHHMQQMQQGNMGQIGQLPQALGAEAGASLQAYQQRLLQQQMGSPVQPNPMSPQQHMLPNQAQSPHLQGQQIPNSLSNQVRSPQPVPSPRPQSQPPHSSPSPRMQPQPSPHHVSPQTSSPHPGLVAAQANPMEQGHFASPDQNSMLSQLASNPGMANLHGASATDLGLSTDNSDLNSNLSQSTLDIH
# HIST1H1C, P16403, UniProt P16403, whole entry: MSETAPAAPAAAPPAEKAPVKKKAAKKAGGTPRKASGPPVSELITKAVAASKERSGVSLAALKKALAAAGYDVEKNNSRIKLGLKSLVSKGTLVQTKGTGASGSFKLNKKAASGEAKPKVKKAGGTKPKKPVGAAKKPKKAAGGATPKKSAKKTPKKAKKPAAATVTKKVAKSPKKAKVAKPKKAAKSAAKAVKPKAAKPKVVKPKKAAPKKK
# HIST1H1D, P16402, UniProt P16402, whole entry: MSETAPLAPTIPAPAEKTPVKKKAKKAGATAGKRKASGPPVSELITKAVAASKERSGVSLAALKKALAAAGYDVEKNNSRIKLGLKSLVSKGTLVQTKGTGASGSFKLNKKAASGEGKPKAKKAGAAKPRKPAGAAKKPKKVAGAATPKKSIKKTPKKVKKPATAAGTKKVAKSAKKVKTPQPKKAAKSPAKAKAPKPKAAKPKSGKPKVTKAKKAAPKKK
# INCENP, Q9NQS7, UniProt Q9NQS7, whole entry: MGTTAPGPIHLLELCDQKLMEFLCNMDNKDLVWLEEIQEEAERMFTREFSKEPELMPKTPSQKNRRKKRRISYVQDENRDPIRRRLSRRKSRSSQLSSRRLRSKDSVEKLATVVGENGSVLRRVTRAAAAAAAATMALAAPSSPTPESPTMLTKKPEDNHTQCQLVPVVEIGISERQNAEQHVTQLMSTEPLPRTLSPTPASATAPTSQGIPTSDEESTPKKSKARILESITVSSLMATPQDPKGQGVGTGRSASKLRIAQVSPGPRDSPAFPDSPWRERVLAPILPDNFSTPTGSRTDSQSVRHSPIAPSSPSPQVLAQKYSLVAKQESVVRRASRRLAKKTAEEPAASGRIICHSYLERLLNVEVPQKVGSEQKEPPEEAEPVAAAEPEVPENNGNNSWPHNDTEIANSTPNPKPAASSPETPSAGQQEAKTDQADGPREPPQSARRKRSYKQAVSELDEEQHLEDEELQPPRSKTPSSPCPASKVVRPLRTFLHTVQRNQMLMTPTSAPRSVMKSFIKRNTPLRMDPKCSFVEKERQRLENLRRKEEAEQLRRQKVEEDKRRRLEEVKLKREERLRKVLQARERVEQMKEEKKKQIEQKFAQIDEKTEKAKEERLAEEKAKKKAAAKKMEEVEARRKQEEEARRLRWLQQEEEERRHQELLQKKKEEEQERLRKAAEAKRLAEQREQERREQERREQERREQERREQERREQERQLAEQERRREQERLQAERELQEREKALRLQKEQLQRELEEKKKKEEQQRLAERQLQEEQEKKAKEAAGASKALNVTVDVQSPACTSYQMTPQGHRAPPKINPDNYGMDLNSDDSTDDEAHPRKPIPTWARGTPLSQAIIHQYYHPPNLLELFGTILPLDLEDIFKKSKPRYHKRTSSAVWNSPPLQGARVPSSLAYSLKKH
# What was measured:
# Assay in all cases: PRISMA enrichment of interactor (LFQ) in peptide spot vs all other peptide spots (log2 fold change); higher = stronger / more specific binding of the interactor to the peptide
# [1] = target: ALYREF, Q86V81
# Method: (§1)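 PRISMA: 15-aa overlapping tiles (offset 8 aa) of 60 microproteins, plus SOS1/GLUT1 control peptides, were spot-synthesized on cellulose membranes in triplicate. Membranes were incubated with benzonase-treated HEK293T lysate, and bound proteins were identified by LC-MS/MS with LFQ. Enrichment is the log2 fold change of each protein in one spot versus all other spots. Only interactors passing the significance cutoff are listed.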
# [2] = target: AP2A1, O95782
# Method: as §1
# [3] = target: AP2B1, P63010
# Method: as §1
# [4] = target: ATP5PO, P48047
# Method: as §1
# [5] = target: BCKDK, O14874
# Method: as §1
# [6] = target: C11orf98, E9PRG8
# Method: as §1
# [7] = target: C12orf65, Q9H3J6
# Method: as §1
# [8] = target: C19orf53, Q9UNZ5
# Method: as §1
# [9] = target: CCDC137, Q6PK04
# Method: as §1
# [10] = target: CCDC59, Q9P031
# Method: as §1
# [11] = target: CCDC77, Q9BR77
# Method: as §1
# [12] = target: CCDC86, Q9H6F5
# Method: as §1
# [13] = target: CGGBP1, Q9UFW8
# Method: as §1
# [14] = target: CHTOP, Q9Y3Y2
# Method: as §1
# [15] = target: CLTA, P09496
# Method: as §1
# [16] = target: CSNK1A1, P48729
# Method: as §1
# [17] = target: CSNK1D, P48730
# Method: as §1
# [18] = target: CSNK1E, P49674
# Method: as §1
# [19] = target: CSRP2, Q16527
# Method: as §1
# [20] = target: CXorf56, Q9H5V9
# Method: as §1
# [21] = target: DECR1, Q16698
# Method: as §1
# [22] = target: EMG1, Q92979
# Method: as §1
# [23] = target: EP300, Q09472
# Method: as §1
# [24] = target: FAM32A, Q9Y421
# Method: as §1
# [25] = target: FAM83D, Q9H4H8
# Method: as §1
# [26] = target: FBXO5, Q9UKT4
# Method: as §1
# [27] = target: GABARAPL2, P60520
# Method: as §1
# [28] = target: GAR1, Q9NY12
# Method: as §1
# [29] = target: H1FX, Q92522
# Method: as §1
# [30] = target: HIST1H1C, P16403
# Method: as §1
# [31] = target: HIST1H1D, P16402
# Method: as §1
# [32] = target: HIST2H2BE, Q16778
# Method: as §1
# [33] = target: HMGB1, P09429
# Method: as §1
# [34] = target: HMGB2, P26583
# Method: as §1
# [35] = target: INCENP, Q9NQS7
# Method: as §1
# [36] = target: IQCB1, Q15051
# Method: as §1
# [37] = target: ISG20L2, Q9H9L3
# Method: as §1
# [38] = target: KRR1, Q13601
# Method: as §1
binder,measurement,setting,value
KDVFEELLSQWDAAL [RP11-140K17.3],PRISMA enrichment of interactor (log2),[1],7.18 ± 0.82
same,PRISMA enrichment of interactor (log2),[2],5.1
same,PRISMA enrichment of interactor (log2),[3],4.68
same,PRISMA enrichment of interactor (log2),[4],5.2
same,PRISMA enrichment of interactor (log2),[5],4.2
same,PRISMA enrichment of interactor (log2),[6],5.85
same,PRISMA enrichment of interactor (log2),[7],4.6
same,PRISMA enrichment of interactor (log2),[8],8.26
same,PRISMA enrichment of interactor (log2),[9],5.46
same,PRISMA enrichment of interactor (log2),[10],4.66
same,PRISMA enrichment of interactor (log2),[11],5.97
same,PRISMA enrichment of interactor (log2),[12],4.93
same,PRISMA enrichment of interactor (log2),[13],4.11
same,PRISMA enrichment of interactor (log2),[14],7.7
same,PRISMA enrichment of interactor (log2),[15],5.09
same,PRISMA enrichment of interactor (log2),[16],5.77
same,PRISMA enrichment of interactor (log2),[17],4.16
same,PRISMA enrichment of interactor (log2),[18],4.74
same,PRISMA enrichment of interactor (log2),[19],4.72
same,PRISMA enrichment of interactor (log2),[20],5.66
same,PRISMA enrichment of interactor (log2),[21],8.02
same,PRISMA enrichment of interactor (log2),[22],6.14
same,PRISMA enrichment of interactor (log2),[23],4.25
same,PRISMA enrichment of interactor (log2),[24],4.06
same,PRISMA enrichment of interactor (log2),[25],4.34
same,PRISMA enrichment of interactor (log2),[26],4.6
same,PRISMA enrichment of interactor (log2),[27],4.75
same,PRISMA enrichment of interactor (log2),[28],4.97
same,PRISMA enrichment of interactor (log2),[29],5.05
same,PRISMA enrichment of interactor (log2),[30],5.14
same,PRISMA enrichment of interactor (log2),[31],5.71
same,PRISMA enrichment of interactor (log2),[32],5.58
same,PRISMA enrichment of interactor (log2),[33],5.67
same,PRISMA enrichment of interactor (log2),[34],4.57
same,PRISMA enrichment of interactor (log2),[35],5.69
same,PRISMA enrichment of interactor (log2),[36],5.24
same,PRISMA enrichment of interactor (log2),[37],4.02
same,PRISMA enrichment of interactor (log2),[38],4.66

# Exported bar-delimited: part of the list above.
binder | measurement | setting | value
KDVFEELLSQWDAAL [RP11-140K17.3] | PRISMA enrichment of interactor (log2) | [16] | 5.77
same | PRISMA enrichment of interactor (log2) | [17] | 4.16
same | PRISMA enrichment of interactor (log2) | [18] | 4.74
same | PRISMA enrichment of interactor (log2) | [19] | 4.72
same | PRISMA enrichment of interactor (log2) | [20] | 5.66
same | PRISMA enrichment of interactor (log2) | [21] | 8.02
same | PRISMA enrichment of interactor (log2) | [22] | 6.14
same | PRISMA enrichment of interactor (log2) | [23] | 4.25
